These are yes or no findings as the source states them, for the method shown. Some binding calls cover weakened binding; strength is not graded here.
How the values were obtained:
[1] = target: T1, extracellular domain of human PRLR (soluble, monomeric, expressed in HEK293 cells) (human) (UniProt P16471); assay: Biacore epitope grouping, antibody immobilized, soluble ECD-PRLR captured
T1 sequence: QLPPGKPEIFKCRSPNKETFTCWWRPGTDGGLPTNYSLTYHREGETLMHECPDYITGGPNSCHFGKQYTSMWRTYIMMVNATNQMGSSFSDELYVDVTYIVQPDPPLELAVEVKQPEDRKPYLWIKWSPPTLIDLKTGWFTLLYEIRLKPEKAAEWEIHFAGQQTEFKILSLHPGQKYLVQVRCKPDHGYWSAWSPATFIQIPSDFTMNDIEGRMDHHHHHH

[2] = target: T2, murine prolactin receptor on cells (HEK293 and Ba/F3 cells stably transfected with murine PRLR) (mouse) (UniProt Q08501); assay: flow cytometry (FACS) on HEK293 cells stably expressing murine PRLR, single concentration of 0.37 µg/ml IgG, detection with PE-conjugated goat anti-human IgG, median fluorescence intensity
T2 sequence (looked up): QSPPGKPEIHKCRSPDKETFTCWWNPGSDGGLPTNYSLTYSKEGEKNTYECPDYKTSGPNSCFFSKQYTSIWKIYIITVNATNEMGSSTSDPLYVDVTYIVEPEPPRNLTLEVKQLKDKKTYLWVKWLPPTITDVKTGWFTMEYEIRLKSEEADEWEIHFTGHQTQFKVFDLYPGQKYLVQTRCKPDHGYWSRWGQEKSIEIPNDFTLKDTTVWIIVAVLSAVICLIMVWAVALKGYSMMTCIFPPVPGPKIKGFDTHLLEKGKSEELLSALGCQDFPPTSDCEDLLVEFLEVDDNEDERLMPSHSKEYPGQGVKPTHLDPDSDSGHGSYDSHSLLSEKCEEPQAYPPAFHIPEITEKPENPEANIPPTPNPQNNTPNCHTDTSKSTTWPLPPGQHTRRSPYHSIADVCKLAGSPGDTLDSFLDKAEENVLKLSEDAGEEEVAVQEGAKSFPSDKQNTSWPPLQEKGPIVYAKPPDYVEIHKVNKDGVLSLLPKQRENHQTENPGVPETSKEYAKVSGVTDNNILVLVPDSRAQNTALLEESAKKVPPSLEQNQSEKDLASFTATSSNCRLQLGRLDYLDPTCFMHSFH

[3] = target: human prolactin receptor on cells (T47D cells; HEK293 and Ba/F cells stably transfected with human PRLR) (human) (UniProt P16471); assay: flow cytometry (FACS) on HEK293 cells stably expressing human PRLR, single concentration of 0.37 µg/ml IgG, detection with PE-conjugated goat anti-human IgG, median fluorescence intensity
[4] = target: T2, murine prolactin receptor on cells (HEK293 and Ba/F3 cells stably transfected with murine PRLR) (mouse); assay: flow cytometry on HEK293 cells stably expressing murine PRLR, fixed concentration
[5] = target: human prolactin receptor on cells (T47D cells; HEK293 and Ba/F cells stably transfected with human PRLR) (human) (UniProt P16471); assay: flow cytometry on HEK293 cells stably expressing human PRLR, fixed concentration

binding [1]: binds
binding [2]: binds
binding [3]: binds
binding [4]: binds
binding [5]: binds
B1: 001-E06 (IgG1) (antibody, V domains shown)
VH: QVELLESGGGLVQPGGSLRLSCAASGFTFSSYWMSWVRQAPGKGLEWVSSVSDTGTDTHYADSVKGRFTISRDNSKNTLYLQMNSLRAEDTAVYYCAKTPLAYSSGWYYFDYWGQGTLVTVSS
VL: DIVLTQPPSASGTPGQRVTISCSGSSSNIGSNTVNWYQQLPGTAPKLLIYRNYQRPSGVPDRFSGSKSGTSASLAISGLRSEDEADYYCQSYDSSLSGSVFGGGTKLTVLG

Source: US20130022606A1
